Source: PubChem BioAssay AID2685 (National Center for Advancing Translational Sciences (NCATS), 2010)
Some of the results follow. Further columns of the screen follow, without active or inactive calls. Most of these compounds were active or inconclusive in the main read-out, so they are no random draw. The note in brackets gives the kind of curve behind each potency; many fits are weak.

Experiment: qHTS Assay for Lipid Storage Modulators in Drosophila S3 Cells;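 as to cell number change: cells counted by Cell Tracker Red CMTPX staining in the red channel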
Conditions: BODIPY lipid droplet fluorescence, 18-24 h; for cell number change: measured here: cell count max response, cells fed with added oleic acid
In short: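 Laser-scanning cytometry quantifies lipid droplet accumulation (500–530 nm total intensity; droplet/cell object ratio) in oleic acid-fed (400 uM added) Drosophila S3 cells treated with a concentration series. 20 uM Triacsin C defined 100% inhibition.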

[1] = measured here: cell number channel AC50, cells fed with added oleic acid
[2] = measured here: lipid fluorescence (Fed channel) AC50, cells fed with added oleic acid

Compound	cell number change	AC50 [1]	AC50 [2]
COc1ccccc1C1CCN(Cc2ccccc2Cl)CC1	-31.8%	29.1 µM [falling, single point]	32.6 µM [falling, single point]
CCOC(=O)c1cccc(NC(=O)Nc2cc(OC)ccc2OC)c1	-75.3%	29.1 µM [falling, single point]	–
COc1ccc2cc(CN(Cc3ccco3)C(c3nnnn3C3CCCCC3)C(C)C)c(=O)[nH]c2c1 (centres undefined)	–	5.17 µM [rising, partial curve]	6.51 µM [rising, single point]
COc1ccc2ccc(O)c(CN3CCN(S(=O)(=O)c4cccc(C(F)(F)F)c4)CC3)c2c1	-5.18%	–	4.11 µM [falling, single point]
O=C(N/C(=C/c1ccc(Br)cc1)C(=O)N1CCCCC1)c1ccccc1F	-22.6%	–	–
CCc1cccc(NC(=O)c2ccc(Br)o2)c1	7.94%	–	–
Cc1cc(C)c(OCC(O)CN2CCN(c3ccccn3)CC2)c(C)c1 (centres undefined)	13.8%	–	4.61 µM [falling, single point]
O=C(COc1ccccc1)NC(=S)Nc1ccc2c3c(cccc13)CC2	-9.82%	–	0.326 µM [rising, full curve]
CC(/C=C1\SC(=S)N(CCCC(=O)Nc2ccc(C(=O)O)cc2)C1=O)=C\c1ccccc1	–	–	8.2 µM [falling, partial curve]
NNC(=O)c1cc(C23CC4CC(CC(C4)C2)C3)[nH]n1	-30.5%	11.6 µM [falling, partial curve, poor fit]	–
CC(=O)Nc1ccc(NC(=O)c2ccccc2N(C)S(=O)(=O)c2ccccc2)cc1	-20.8%	–	0.184 µM [falling, full curve, poor fit]
CC(Oc1ccc(Cl)cc1)C(=O)Nc1sccc1C(N)=O (centres undefined)	-0.202%	–	0.116 µM [rising, full curve, poor fit]
COc1ccc(C(=O)NC2(C(F)(F)F)NC(=O)N(CCCc3ccccc3)C2=O)cc1OC (centres undefined)	6.93%	–	6.51 µM [rising, partial curve]
COc1ccccc1-c1nc(C#N)c(N2CCc3ccccc3C2)o1	14.7%	–	1.64 µM [rising, partial curve]
COc1ccc(C(C)=O)cc1COC(=O)c1cc(C)nc2ccccc12	–	5.17 µM [rising, single point]	–
Oc1ccc(-c2n[nH]c(C(F)(F)F)c2-c2ccccc2)c(O)c1	-46.4%	14.6 µM [falling, single point]	13 µM [falling, partial curve]
Cc1ccc(NC(=O)C2CCN(c3nc(C)cc(C)n3)CC2)cc1	15.3%	–	0.411 µM [falling, single point]
O=C(Nc1ccccc1C(=O)O)c1cccc(NC(=O)c2ccccc2Br)c1	44.9%	25.9 µM [rising, single point]	29.1 µM [rising, single point]
CCOc1ncccc1C(=O)Nc1nnc(C2CC2)s1	–	0.146 µM [rising, single point]	–
Cc1onc(-c2c(F)cccc2Cl)c1C(=O)Nc1sc2c(c1C(N)=O)CCC2	-0.594%	–	6.51 µM [rising, single point]

Compound	cell number change	AC50 [1]	AC50 [2]
C[C@]12CCC(=O)C=C1[C@H](O)C[C@@H]1[C@@H]2[C@@H](O)C[C@@]2(C)[C@H]1CC[C@]2(O)C(=O)CO	10.5%	–	6.51 µM [falling, single point]
CCC1C2CN(C(C)=O)CC=C2C(C#N)=C(N)C1(C#N)C#N (centres undefined)	-9.39%	–	14.6 µM [rising, single point]
CCOC(=O)c1sc(NC(=O)CCN2CC(C)OC(C)C2)c(C(=O)OCC)c1C (centres undefined)	–	0.231 µM [rising, full curve, poor fit]	1.16 µM [rising, full curve]
O=C(Nc1cccc(S(=O)(=O)C(F)F)c1)c1ccc(S(=O)(=O)N2CCOCC2)cc1	-13%	–	–
CCOC(=O)c1sc2nc3c(cc2c1N)COC(C)(CC)C3 (centres undefined)	20.2%	–	–
COC(=O)c1cnc(N2CCCN(S(=O)(=O)c3ccc(C(F)(F)F)cc3)CC2)nc1C(F)(F)F	-30.4%	0.058 µM [falling, full curve, poor fit]	18.4 µM [falling, partial curve]
O=C(C1CCCCC1)N1CCN=C1SCc1cccc([N+](=O)[O-])c1	-15%	–	–
Cc1ccc(Cn2c(-c3nonc3N)nc3ccccc32)cc1	-6.56%	0.411 µM [falling, single point]	–
COc1cccc(-c2nc(-c3ccccn3)no2)c1OC	–	1.03 µM [rising, full curve]	2.31 µM [rising, partial curve]
CC(C)OC(=O)CSc1nnc(-c2cnccn2)n1-c1ccc(Cl)cc1	-33.2%	23.1 µM [falling, single point]	29.1 µM [falling, single point]
Clc1ccc(-c2cnc3n2CCCCC3)cc1	-4.42%	0.461 µM [falling, single point]	–
Cc1csc2c(N3CCN(C(=O)Nc4ccc(Cl)c(Cl)c4)CC3)ncnc12	22.4%	–	23.1 µM [rising, single point]
Brc1ccc(C2=Nn3c(nnc3-c3n[nH]c4c3CCC4)SC2)cc1	-22.8%	–	20.6 µM [rising, partial curve]
CCN(CC)c1ccc(C2C3CCCCC3(O)CCN2CC(=O)Nc2ccccc2)cc1 (centres undefined)	5.97%	–	14.6 µM [rising, partial curve]
CCOCC(=O)N1CCN(Cc2ccc3c(c2)OCO3)CC1	0.275%	–	29.1 µM [rising, single point]
COc1ccc(OCC(=O)Nn2c(-c3ccc(C)cc3)nc3ccccc3c2=O)cc1	0.37%	–	2.59 µM [falling, partial curve]
Cn1c(=O)oc2cc(S(=O)(=O)N3CCCC(C(=O)NCc4ccc5c(c4)OCO5)C3)ccc21 (centres undefined)	37%	11.6 µM [rising, single point]	–
COc1ccc(C(=S)N2CCN(c3cccc(Cl)c3)CC2)c(OC)c1	50.2%	5.8 µM [rising, full curve, poor fit]	6.51 µM [rising, single point]
O=S(=O)(Nc1nc2ccc(S(=O)(=O)N3CCCC3)cc2s1)c1ccc(F)cc1	6.75%	–	1.84 µM [falling, partial curve]
COc1ccc(NC(=S)NC(NC(=O)c2cccc3ccccc23)C(Cl)(Cl)Cl)c([N+](=O)[O-])c1 (centres undefined)	64.8%	4.11 µM [rising, full curve]	–

An excerpt of the results above:
Compound	cell number change	AC50 [1]	AC50 [2]
Cc1ccc(Cn2c(-c3nonc3N)nc3ccccc32)cc1	-6.56%	0.411 µM [falling, single point]	–
COc1cccc(-c2nc(-c3ccccn3)no2)c1OC	–	1.03 µM [rising, full curve]	2.31 µM [rising, partial curve]
CC(C)OC(=O)CSc1nnc(-c2cnccn2)n1-c1ccc(Cl)cc1	-33.2%	23.1 µM [falling, single point]	29.1 µM [falling, single point]

Later entries

Compound	cell number change	AC50 [1]	AC50 [2]
O=C(NCCNC(=O)c1ccccc1Cl)c1ccco1	8.11%	–	–
O=C(CN1C(=O)NC2(CCCC2)C1=O)N1CCCSC1=Nc1ccccc1	-8.96%	–	0.146 µM [rising, full curve]
Cc1cc(S(=O)(=O)Nc2ccccc2C(=O)O)ccc1Cl	10.3%	–	3.66 µM [rising, single point]
CCC(C)c1ccccc1NC(=O)C(C)N(C)Cc1cccc(OC)c1 (centres undefined)	22.7%	–	–
COc1ccccc1/C=C/C(=O)NCC(=O)N/N=C/c1cccnc1	-38.1%	7.31 µM [falling, partial curve, poor fit]	–
CCCCOC(=O)Nc1nnc(CCOCC)s1	8.93%	–	0.82 µM [falling, full curve, poor fit]
O=C(c1ccc([N+](=O)[O-])cc1)N(Cc1ccc(Cl)cc1Cl)N1C(=O)CCCC1=O	11.8%	–	–
COc1ccc(Cn2c(=O)[nH]c3cc(C(=O)NCCc4ccc(S(N)(=O)=O)cc4)ccc3c2=O)cc1	-38.2%	–	–
CCO[C@@H]1OC(C(=O)NCc2nc3ccccc3[nH]2)=C[C@H](C2CCCCC2)[C@H]1CCCO	-42.9%	14.6 µM [falling, partial curve]	14.6 µM [falling, partial curve]
CCC(C)c1ccc(OCC(=O)Nc2ccc(Cl)cn2)cc1 (centres undefined)	-53.8%	13 µM [falling, partial curve]	–
O=C(c1cnn(C(=O)c2cccc(S(=O)(=O)N3CCOCC3)c2)c1)c1ccccc1O	62%	–	6.51 µM [falling, single point]
CCOc1ccc(-c2csc(/C(C#N)=C\c3ccc(O)c([N+](=O)[O-])c3)n2)cc1	-55.1%	32.6 µM [falling, single point]	25.9 µM [falling, partial curve, poor fit]
On1c(-c2ccccc2)nc2ccc(Cl)cc21	-24.3%	–	–
CCCCn1c(N)c(N(CCOC)C(=O)CN(C)S(=O)(=O)c2ccc(Cl)cc2)c(=O)[nH]c1=O	9.73%	–	2.06 µM [falling, partial curve]
CCn1c2ccccc2c2cc(NC(=O)CNCc3ccccc3OC)ccc21	-21.9%	–	0.206 µM [rising, single point]
CCC1(O)c2ccccc2-c2ncccc21 (centres undefined)	137%	29.1 µM [rising, single point]	–
COc1ccc(C2CC(c3ccccc3)=NN2C(=S)Nc2ccccc2)cc1 (centres undefined)	15.5%	–	10.3 µM [falling, partial curve, poor fit]
CC(Sc1ccccc1)C(=O)Nc1cccc(N(C)S(C)(=O)=O)c1 (centres undefined)	35.1%	0.259 µM [rising, full curve, poor fit]	32.6 µM [rising, single point]
CCCn1c(SCC(=O)Nc2ccc(NC(=O)CC)cc2)nc2c1c(=O)n(C)c(=O)n2C	15.7%	6.51 µM [rising, single point]	–
